Results are given in words; binding and its absence hold for the method and conditions named. Binding seen in cells or lysates may run through a third protein. Some results given as binding are weak or reduced against the parent protein; the word gives no strength. Where a sequence is shown, tags or fusion partners need not be part of it. Blank lines part the entries; values can stand above or below the binder they belong to.
Tests used:
Assay in all cases: co-IP; N2a cells cotransfected with Gαo-GFP variant and His6-RGS19; IP with GST-tagged anti-GFP nanobody and glutathione Sepharose 4B beads, overnight at 4°C; Western blot with anti-GFP and anti-His6
[1] = biological target: Gαo-GFP A227V (human) (UniProt P09471)
[2] = biological target: Gαo-GFP C215Y (human) (UniProt P09471)
[3] = biological target: Gαo-GFP D174G (human) (UniProt P09471)
[4] = biological target: Gαo-GFP E237K (human) (UniProt P09471)
[5] = biological target: Gαo-GFP F275S (human) (UniProt P09471)
[6] = biological target: Gαo-GFP G40R (human) (UniProt P09471)
[7] = biological target: Gαo-GFP G45E (human) (UniProt P09471)
[8] = biological target: Gαo-GFP I279N (human) (UniProt P09471)
[9] = biological target: Gαo-GFP L199P (human) (UniProt P09471)
[10] = biological target: Gαo-GFP N270H (human) (UniProt P09471)
[11] = biological target: Gαo-GFP Q233P (human) (UniProt P09471)
[12] = biological target: Gαo-GFP S47G (human) (UniProt P09471)
[13] = biological target: Gαo-GFP Y231C (human) (UniProt P09471)
[14] = biological target: Gαo-GFP wild-type (human) (UniProt P09471)
[15] = biological target: Gαo-GFP E246K (human), P09471; settings: remark: other sources report otherwise
[16] = biological target: Gαo-GFP G203R (human), P09471; settings: remark: other sources report otherwise
[17] = biological target: Gαo-GFP R209C (human), P09471; settings: remark: other sources report otherwise

Chains of the proteins cited; added tags and fusions are not shown. Lines headed by an entry give the natural chain unless they say otherwise; changes in a name come on top.
UniProt P09471: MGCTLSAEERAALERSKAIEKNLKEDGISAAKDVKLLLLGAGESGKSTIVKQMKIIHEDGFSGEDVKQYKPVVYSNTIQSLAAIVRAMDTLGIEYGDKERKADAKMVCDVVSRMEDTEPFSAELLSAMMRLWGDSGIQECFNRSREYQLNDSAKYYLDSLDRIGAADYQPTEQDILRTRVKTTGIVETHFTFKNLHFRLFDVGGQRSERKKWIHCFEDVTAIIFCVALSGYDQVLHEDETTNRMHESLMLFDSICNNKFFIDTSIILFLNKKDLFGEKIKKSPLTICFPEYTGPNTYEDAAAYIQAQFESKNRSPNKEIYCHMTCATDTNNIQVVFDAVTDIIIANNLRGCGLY

binding [1]: no binding | binding [2]: no binding | binding [3]: no binding | binding [4]: no binding | binding [5]: no binding | binding [6]: no binding | binding [7]: no binding | binding [8]: no binding | binding [9]: no binding | binding [10]: no binding | binding [11]: no binding | binding [12]: no binding | binding [13]: no binding | binding [14]: binds
B1: His6-RGS19 (protein, UniProt P49795 1-217)
chain: MPTPHEAEKQITGPEEADRPPSMSSHDTASPAAPSRNPCCLCWCCCCSCSWNQERRRAWQASRESKLQPLPSCEVCATPSPEEVQSWAQSFDKLMHSPAGRSVFRAFLRTEYSEENMLFWLACEELKAEANQHVVDEKARLIYEDYVSILSPKEVSLDSRVREGINKKMQEPSAHTFDDAQLQIYTLMHRDSYPRFLSSPTYRALLLQGPSQSSSEA

binding [15]: no binding | binding [16]: no binding | binding [17]: no binding
B2: His6-RGS19, P49795 1-217 (protein)
chain: B1 chain
